At least one compound was matched to its structure with a doubt left.
Tests used:
Assay type in all cases: cell-based
[1] = system: Staphylococcus aureus; test: Antimicrobial activity by agar dilution, St. Aereus
Procedure: (§1) The antibacterial properties of the synthesized compound (pyridino-2,16-dioxapentacyclo[7.7.5.0^1,21.0^3,8.0^10,15]henicosa3(8),10,12,14-tetraene-7,20-dione) were studied by the method of agar dilution. Test solutions of each compound was prepared in concentration of 1% using dimethylformamide as a solvent. Then they were diluted in physiological solution to obtain the final experimental dilutions of 1:100, 1:200, 1:400, and 1:800. The effect of these substances were compared with furacillin in a controllable study. The testing microbes used were gram positive bacteria Staphylococcus aureus, gram negative bacteria Pseudomonas aeruginosa, Escherichia coli, and Candida albicans fungus. The experiments used for this survey were meat-pentonlu agar (EPA) for cultivation of bacteria and Saburo environment for fungi. Each experiment used 1 mL of test solution on each plate for 500 minutes. Two drops of emulsified with microbes feel were added. All experimental samples were taken from the agar after 10, 20, 40, 60 minutes in the environment on the basis of Patrk planted. Bacteria were cultivated at a temperature of 37° C. for 1 day and the mushroom was kept in a thermostat for […] at a temperature of 28° C. Then results were checked. Those of control and the antimicrobial activity for the synthesized compounds are listed in Table 1 below, with furacillin serving as a reference.

[2] = system: Escherichia coli; test: Antimicrobial activity by agar dilution, E. Coli
Procedure: as §1

[3] = system: Pseudomonas aeruginosa; test: Antimicrobial activity by agar dilution, Ps. aeruginosa
Procedure: as §1

[4] = system: Candida albicans; test: Antimicrobial activity by agar dilution, Candida albicans
Procedure: as §1

[5] = dilution rate 1:100, exposure time 10 min
[6] = dilution rate 1:100, exposure time 20 min
[7] = dilution rate 1:100, exposure time 40 min
[8] = dilution rate 1:100, exposure time 60 min
[9] = dilution rate 1:200, exposure time 10 min
[10] = dilution rate 1:200, exposure time 20 min
[11] = dilution rate 1:200, exposure time 40 min
[12] = dilution rate 1:200, exposure time 60 min
[13] = dilution rate 1:400, exposure time 10 min
[14] = dilution rate 1:400, exposure time 20 min
[15] = dilution rate 1:400, exposure time 40 min
[16] = dilution rate 1:400, exposure time 60 min
[17] = dilution rate 1:800, exposure time 10 min
[18] = dilution rate 1:800, exposure time 20 min
[19] = dilution rate 1:800, exposure time 40 min
[20] = dilution rate 1:800, exposure time 60 min

In the case of NC(=O)N/N=C/c1ccc([N+](=O)[O-])o1 [Furacilin], the “antimicrobial activity, St. Aereus” value [1, 5] is reported as “+”, the “antimicrobial activity, St. Aereus” value [1, 6] is reported as “−” and the “antimicrobial activity, St. Aereus” value [1, 7] is reported as “−”. For the same compound, the “antimicrobial activity, St. Aereus” value [1, 8] was “−”, the “antimicrobial activity, St. Aereus” value [1, 9] was “+” and the “antimicrobial activity, St. Aereus” value [1, 10] was “+”. For the same compound, the “antimicrobial activity, St. Aereus” value [1, 11] was “+”, the “antimicrobial activity, St. Aereus” value [1, 12] was “+” and the “antimicrobial activity, St. Aereus” value [1, 13] was “+”. For the same compound, the “antimicrobial activity, St. Aereus” value [1, 14] was “+”, the “antimicrobial activity, St. Aereus” value [1, 15] was “+” and the “antimicrobial activity, St. Aereus” value [1, 16] was “+”. For the same compound, the “antimicrobial activity, St. Aereus” value [1, 17] was “+”, the “antimicrobial activity, St. Aereus” value [1, 18] was “+” and the “antimicrobial activity, St. Aereus” value [1, 19] was “+”. For the same compound, the “antimicrobial activity, St. Aereus” value [1, 20] was “+”, the “antimicrobial activity, E. Coli” value [2, 5] was “−” and the “antimicrobial activity, E. Coli” value [2, 6] was “−”. The “antimicrobial activity, E. Coli” value [2, 7] was “−”, the “antimicrobial activity, E. Coli” value [2, 8] was “−” and the “antimicrobial activity, E. Coli” value [2, 9] was “+”. The “antimicrobial activity, E. Coli” value [2, 10] was “+”, the “antimicrobial activity, E. Coli” value [2, 11] was “+” and the “antimicrobial activity, E. Coli” value [2, 12] was “+”. For the same compound, the “antimicrobial activity, E. Coli” value [2, 13] was “+”, the “antimicrobial activity, E. Coli” value [2, 14] was “+” and the “antimicrobial activity, E. Coli” value [2, 15] was “+”. The “antimicrobial activity, E. Coli” value [2, 16] was “+”, the “antimicrobial activity, E. Coli” value [2, 17] was “+” and the “antimicrobial activity, E. Coli” value [2, 18] was “+”. For the same compound, the “antimicrobial activity, E. Coli” value [2, 19] was “+”, the “antimicrobial activity, E. Coli” value [2, 20] was “+” and the “antimicrobial activity, Ps. aeruginosa” value [3, 5] was “−”. For the same compound, the “antimicrobial activity, Ps. aeruginosa” value [3, 6] was “+”, the “antimicrobial activity, Ps. aeruginosa” value [3, 7] was “+” and the “antimicrobial activity, Ps. aeruginosa” value [3, 8] was “+”. The “antimicrobial activity, Ps. aeruginosa” value [3, 9] was “+”, the “antimicrobial activity, Ps. aeruginosa” value [3, 10] was “+” and the “antimicrobial activity, Ps. aeruginosa” value [3, 11] was “+”. The “antimicrobial activity, Ps. aeruginosa” value [3, 12] was “+”, the “antimicrobial activity, Ps. aeruginosa” value [3, 13] was “+” and the “antimicrobial activity, Ps. aeruginosa” value [3, 14] was “+”. The “antimicrobial activity, Ps. aeruginosa” value [3, 15] was “+”, the “antimicrobial activity, Ps. aeruginosa” value [3, 16] was “+” and the “antimicrobial activity, Ps. aeruginosa” value [3, 17] was “+”. For the same compound, the “antimicrobial activity, Ps. aeruginosa” value [3, 18] was “+”, the “antimicrobial activity, Ps. aeruginosa” value [3, 19] was “+” and the “antimicrobial activity, Ps. aeruginosa” value [3, 20] was “+”. The “antimicrobial activity, Candida albicans” value [4, 5] was “+”, the “antimicrobial activity, Candida albicans” value [4, 6] was “−” and the “antimicrobial activity, Candida albicans” value [4, 7] was “−”. The “antimicrobial activity, Candida albicans” value [4, 8] was “+”, the “antimicrobial activity, Candida albicans” value [4, 9] was “+” and the “antimicrobial activity, Candida albicans” value [4, 10] was “+”. The “antimicrobial activity, Candida albicans” value [4, 11] was “+”, the “antimicrobial activity, Candida albicans” value [4, 12] was “+” and the “antimicrobial activity, Candida albicans” value [4, 13] was “+”. The “antimicrobial activity, Candida albicans” value [4, 14] was “+”, the “antimicrobial activity, Candida albicans” value [4, 15] was “+” and the “antimicrobial activity, Candida albicans” value [4, 16] was “+”. The “antimicrobial activity, Candida albicans” value [4, 17] was “+”, the “antimicrobial activity, Candida albicans” value [4, 18] was “+” and the “antimicrobial activity, Candida albicans” value [4, 19] was “+”. For the same compound, the “antimicrobial activity, Candida albicans” value [4, 20] was “+”.

Reference: US11970505B1, “Pyridino-2,16-dioxapentacyclo[7.7.5.01,21.03,8.010,15]henicosa3(8),10,12,14-tetraene-7,20-dione as an antimicrobial compound” (KING FAISAL UNIVERSITY, priority 2023, dated 2024)
